Values joined by “and” are separate entries in the source; they are usually repeats but may differ in a detail not shown here. Identical values can stand only once. The list shows a part of the results. Shown are side measurements of this screen, not its main read-out; they come without a call. Compounds called inactive in the main read-out are mostly missing here. Words in brackets tell the shape of the fitted curve; partial curves, single points and poor fits give uncertain potencies.

This assay can be described thus: qHTS Assay for Lipid Storage Modulators in Drosophila S3 Cells.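 As to cell number change: cells counted by Cell Tracker Red CMTPX staining in the red channel.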 The note with it: BODIPY lipid droplet fluorescence, 18-24 h; for cell number change: measured here: cell count max response, cells fed with added oleic acid. Put shortly:
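Drosophila S3 cells got compounds at several concentrations plus oleic acid (400 uM solution). Laser-scanning cytometry with 488 nm excitation read lipid droplets at 500-530 nm and cells at 575-640 nm. Percent activity was relative to 20 uM Triacsin C.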
Background: Quantitative high-throughput screening tests each substance at several concentrations.

Setting [1] is: measured here: lipid fluorescence (Fed channel) AC50, cells fed with added oleic acid.
Setting [2] is: measured here: cell number channel AC50, cells fed with added oleic acid.

Regarding `O=c1c2cc(Br)ccc2nc(-c2ccc([N+](=O)[O-])cc2)n1O`, the cell number change was -34%.

For the molecule `CCN1C(=NCC(C)C)N[C@@H](c2cccc(F)c2)C(C(=O)OC)=C1C`, the cell number change was -0.898% and 24.4%. The AC50 (as a rule, the midpoint of the concentration-response curve, whichever way the signal moves) under setting [1] is 0.58 µM [falling, full curve].

With `O=C(c1ccc(CS(=O)(=O)c2c(Cl)cccc2Cl)o1)N1CCCC1`, the cell number change amounted to 8.13%. Also, the half-maximal activity concentration (AC50) under setting [1] was 4.11 µM [rising, partial curve].

As for `Cc1ccc(C(=O)C2CCNCC2)cc1`, the cell number change is -10.7%.

On to `O=C(Cc1ccc(F)cc1)N/N=C/c1ccccn1`, for which the cell number change was -2.09%. Besides, the AC50 under setting [1] is 0.164 µM [rising, full curve, poor fit].

For `CCC(C)c1ccc(OCC(=O)O)cc1` (centres undefined), the cell number change is -184%. In addition, the AC50 under setting [2] is 23.1 µM [falling, partial curve].

Consider `CSc1ncc(C(=O)Nc2cccc(S(N)(=O)=O)c2)n1-c1ccccc1`, for which the cell number change worked out at 11.7%. The AC50 under setting [1] is 13 µM [rising, partial curve].

In the case of `O=C(Nc1ccc(CN2CCS(=O)(=O)CC2)cc1)c1ccc(F)cc1`, the cell number change is -18.6%. Besides, the AC50 under setting [2] was 0.461 µM [falling, full curve, poor fit]. Further, the AC50 under setting [1] was 0.82 µM [falling, full curve].

`O=C(NCCc1ccccc1)c1cc(-c2ccc3c(c2)OCO3)on1`: the cell number change came to 32.1%.

Regarding `CCOC(=O)c1c(NC(=O)Nc2ccccc2)sc(C)c1C`, the cell number change is -15.9%.

In the case of `COc1cc(C(=O)N/N=C/c2cccc(Oc3ccccc3)c2)ccc1O`, the cell number change was -4.95%. Further, the half-maximal activity concentration (AC50) under setting [2] is 0.82 µM [falling, partial curve]. In addition, the AC50 under setting [1] is 29.1 µM [falling, single point].

Regarding `O=C(O)CC(CC(=O)O)c1ccsc1`, the cell number change was -3.39%. For the same molecule, the AC50 under setting [1] was 1.16 µM [rising, single point].

As for `Cc1ccc(CNC(=O)CSc2nccn(-c3ccc(C)c(F)c3)c2=O)cc1`, the half-maximal activity concentration (AC50) under setting [1] was 18.4 µM [falling, partial curve].

Regarding `CCNc1nc(NCC)n2c(SCC(=O)Nc3cc(Cl)ccc3OC)nnc2n1`, the half-maximal activity concentration (AC50) is, setting by setting: under setting [2], 0.731 µM [rising, single point]; under setting [1], 0.58 µM [rising, single point].

Regarding `C/C(=N\NC(=O)c1c(C)nc2ccccn12)c1ccc(C(C)(C)C)cc1`, the AC50 under setting [1] is 0.731 µM [rising, full curve].

For the molecule `c1ccc(-c2nc(-n3nc4ccccc4n3)nc3ccccc23)cc1`, the cell number change was 6.01%. Besides, the AC50 under setting [1] is 1.84 µM [rising, full curve, poor fit].

As for `CS(=O)(=O)N(Cc1ccc(C(=O)NN=C2CCCCCC2)cc1)c1ccccc1`, the cell number change came to 17.5%. Further, the AC50 under setting [1] is 16.4 µM [rising, single point].

In the case of `O=C(Nc1ccccc1Cl)C1CCCN(S(=O)(=O)c2ccc(F)cc2)C1` (centres undefined), the cell number change was -16.5%. Moreover, the AC50 under setting [1] was 4.61 µM [rising, partial curve].

As to `COc1ccccc1C(=O)C1CCCN(C(=O)c2cnn(C(C)C)c2)C1` (centres undefined), the cell number change was 10.5%. Under setting [1], the AC50 was 29.1 µM [rising, single point].

Regarding `CN(C)c1ccc(CNc2ncc(Br)cc2Br)cc1`, the cell number change was 34.8%. In addition, the half-maximal activity concentration (AC50) under setting [2] was 0.461 µM [rising, full curve, poor fit]. The half-maximal activity concentration (AC50) under setting [1] was 4.61 µM [rising, single point].

In the case of `CCCCn1c(=O)c(-c2ccccc2)c(O)c2ccccc21`, the cell number change is -9.68%.

With `COc1ccc(N=C2SC(CC(=O)Nc3ccc(OC)cc3OC)C(=O)N2C)cc1` (centres undefined), the cell number change worked out at 2.36%. Also, under setting [1], the half-maximal activity concentration (AC50) was 16.4 µM [rising, single point].

As for `Cc1cc(C)n2nc3nc(N4CCCCC4)nc(-c4ccco4)c3c2n1`, the AC50 runs as follows: under setting [2], 1.64 µM [rising, partial curve]; under setting [1], 0.206 µM [rising, full curve, poor fit].

With `CCOC(=O)c1ccc(NC(=O)c2nc(S(=O)(=O)Cc3ccccc3)ncc2Cl)cc1`, the cell number change was determined as 48.4%. For the same molecule, the half-maximal activity concentration (AC50) under setting [2] is 6.51 µM [falling, single point]. In addition, the half-maximal activity concentration (AC50) under setting [1] is 6.51 µM [falling, single point].

Regarding `Cc1ccc(S(=O)(=O)N(CCCO)Cc2cc3c(C)ccc(C)c3[nH]c2=O)cc1`, the cell number change turned out to be 45.6%. Further, the AC50 under setting [2] is 0.082 µM [rising, full curve]. The concentration at half-maximal activity (AC50) under setting [1] was 0.092 µM [rising, full curve, poor fit].

As for `O=C(N/N=C/c1ccc(Cl)cc1Cl)c1cccc(F)c1`, the cell number change was -9.06%. For the same molecule, the half-maximal activity concentration (AC50) under setting [1] was 9.2 µM [rising, partial curve].

For the molecule `O=C(NC1CCCCC1)c1ccc(CN2CCOCC2)cc1`, the cell number change was -5.87%. For the same molecule, the half-maximal activity concentration (AC50) under setting [1] was 0.146 µM [falling, single point].

For `Cc1ccc(Oc2ccc(-c3nc(N)nc(N)n3)cc2)cc1`, the concentration at half-maximal activity (AC50) under setting [2] was 3.26 µM [rising, single point].

For the molecule `Cc1cccc(C)c1NC(=O)CN(C)C(=O)c1cc(S(=O)(=O)N(C)C)ccc1N1CCCC1`, the cell number change was determined as 36.4%. Also, the AC50 under setting [2] was 29.1 µM [rising, single point].

For the molecule `CCOC(=O)CN(C(=O)CSc1nnc(CNc2ccc(F)cc2)n1CC)c1ccc(F)cc1`, the cell number change turned out to be 52.4%. In addition, the concentration at half-maximal activity (AC50) under setting [2] is 29.1 µM [rising, single point].

For the molecule `Cc1ccc(C(O)P(=O)(OCc2ccccc2)c2ccc(N(C)C)cc2)cc1` (centres undefined), the cell number change is -15%. Besides, the AC50 under setting [1] is 11.6 µM [falling, partial curve].

For `CCCCNC(=O)c1sc(=S)n(-c2ccccc2OC)c1N`, the cell number change worked out at 4.08%.

With `Cn1c(=O)oc2cc(S(=O)(=O)NCc3cccnc3)ccc21`, the cell number change came out at 28.8%. The concentration at half-maximal activity (AC50) under setting [2] was 1.46 µM [rising, full curve, poor fit].

Consider `Oc1ccc(-n2nnnc2SCc2ccccc2Br)cc1`, for which the cell number change is -19.6%. The AC50 under setting [1] is 29.1 µM [falling, single point].

Turning to `COc1ccc(CCNC(=O)CN2CCN(c3ccccc3Cl)CC2)cc1`, under setting [2], the AC50 is 6.51 µM [rising, single point].

For the molecule `O=C1NN(c2ccc(Cl)c(Cl)c2)C(=O)/C1=C/c1ccc(-c2ccccc2C(=O)O)o1`, the cell number change was found to be 1.42%. Besides, under setting [1], the AC50 was 6.51 µM [rising, partial curve].

On to `N#C/C(=N/Nc1ccccc1[N+](=O)[O-])C(N)=S`, for which the cell number change came out at 75%. The concentration at half-maximal activity (AC50) under setting [2] is 9.2 µM [rising, partial curve, poor fit]. In addition, the half-maximal activity concentration (AC50) under setting [1] is 9.2 µM [rising, partial curve].

As for `CCn1c(Cc2ccc(OC)cc2)nnc1SCC(=O)Nc1ccc(N2CCOCC2)cc1`, the cell number change is -36.2%. In addition, under setting [2], the AC50 is 0.00366 µM [falling, full curve, poor fit].

In the case of `Cc1ccc(C)c(NC(=O)COc2cccc3c2CCN(Cc2ccccc2C)C3=O)c1`, the cell number change was found to be 14.3%.

For the molecule `COc1ccc(C(=O)N2CCCN(C)CC2)cc1S(=O)(=O)N(C)Cc1ccccc1`, the cell number change is -10.1%. The concentration at half-maximal activity (AC50) under setting [1] was 2.59 µM [rising, full curve, poor fit].

In the case of `O=C(CN1C(=O)COc2ccccc21)NC1CCCC1`, the cell number change amounted to 12.5%.

Take `c1ccc(C2c3[nH]c4ccccc4c3CCN2Cc2cccn2-c2ccccn2)nc1` (centres undefined): the cell number change was 9.12%. For the same molecule, under setting [2], the concentration at half-maximal activity (AC50) was 6.51 µM [rising, single point].

With `Cc1ccc2c(c1)c1c(n2CC(O)CNC2CCCCC2)CCCC1` (centres undefined), the cell number change was -4.96%.

Regarding `COc1ccc(CNC(=S)Nc2ccc(OC)cc2)cc1`, the cell number change is -6.11%. For the same molecule, the concentration at half-maximal activity (AC50) under setting [2] is 0.146 µM [falling, full curve, poor fit].

With `Cc1ccc2nc3ccc(N4CCCCCCC4)nn3c(=O)c2c1`, the cell number change is -23.2%. For the same molecule, the AC50 under setting [1] is 1.84 µM [rising, partial curve].

`COCCCNS(=O)(=O)c1ccc2[nH]c3c(c2c1)CCCCC3`: the cell number change was found to be 13.5%. Moreover, the concentration at half-maximal activity (AC50) under setting [1] is 32.6 µM [rising, partial curve, poor fit].

In the case of `CCC(CC)C(=O)Nc1cccc(C(=O)c2ccccc2)c1`, the cell number change turned out to be 160%. Besides, the half-maximal activity concentration (AC50) under setting [2] is 18.4 µM [rising, single point].

For `COc1ccc(C(=O)CN2C3=NCCCN3c3ccccc32)cc1OC`, the cell number change worked out at 38%. In addition, the half-maximal activity concentration (AC50) under setting [2] is 0.0731 µM [rising, full curve]. Further, the concentration at half-maximal activity (AC50) under setting [1] was 0.0731 µM [rising, full curve].

On to `COCCN1C(=O)Cc2c1nc(N)c1c(N)nc(N3CCN(c4ccc(F)cc4)CC3)c(C#N)c21`, for which the cell number change was found to be 32.7%.

In the case of `CC1(c2nnc(Cc3ccccc3)o2)CC(c2ccccc2[N+](=O)[O-])=NO1` (centres undefined), the cell number change was -32.9%. In addition, the AC50 under setting [2] is 11.6 µM [falling, partial curve]. Further, the concentration at half-maximal activity (AC50) under setting [1] is 20.6 µM [falling, partial curve].

As to `Cc1ccc(CCN2CC(C(=O)NCCCN3CCN(C)CC3)CC2=O)cc1` (centres undefined), the cell number change is 6.04%.

For the molecule `CCC(C)C(NC(=O)c1ccccc1NC(=O)c1ccccc1)C(=O)O` (centres undefined), the cell number change was determined as 22.9%. For the same molecule, the AC50 under setting [1] is 5.8 µM [rising, full curve].

`Cc1ccc(C(=O)O)cc1-c1ccc(/C=C2\SC(=O)N(CC(=O)Nc3ccccc3)C2=O)o1`: the cell number change was 31.2%. Moreover, the AC50 under setting [2] was 20.6 µM [rising, single point]. Moreover, the AC50 under setting [1] is 23.1 µM [rising, single point].

On to `CCCn1nc(C(=O)NNC(=O)CSC(C)C(=O)Nc2cc(C)on2)c2ccccc2c1=O` (centres undefined), for which the concentration at half-maximal activity (AC50) under setting [1] is 16.4 µM [rising, single point].

As for `COc1ccccc1NC(=O)c1sc2nc(Cc3ccccc3)cc(C(F)(F)F)c2c1N`, the cell number change was -28.7%. The AC50 under setting [2] was 0.731 µM [rising, partial curve].

On to `COc1c2occc2c(OC)c2c(=O)cc(C(F)(F)C(F)(F)F)oc12`, for which the cell number change is -0.905%.

Turning to `CC1Cc2nc(SCC(=O)NC3CCCCC3)n(C)c(=O)c2S1` (centres undefined), under setting [2], the AC50 was 2.06 µM [rising, partial curve].

As to `CC(=O)Nc1cccc(NC(=O)C2CCCN2C(=O)Nc2ccc(C)cc2)c1` (centres undefined), the cell number change was 4.84%.

Consider `CC(=O)Nc1ccc(S(=O)(=O)NCC2CCC(C(=O)NC(C)c3ccccc3)CC2)cc1` (centres undefined), for which the cell number change is -6.85%. The concentration at half-maximal activity (AC50) under setting [1] was 6.51 µM [falling, partial curve, poor fit].

As for `C=CCC1NS(=O)(=O)OC(CCc2ccccc2)C1O` (centres undefined), the cell number change is 11.7%.

For the molecule `COCCN(Cc1ccccc1)C(=O)C1CCN(S(=O)(=O)c2ccc3c(c2)OCCO3)CC1`, the cell number change was -23.5%. For the same molecule, the AC50 under setting [1] was 6.51 µM [falling, full curve].

For `COc1ccc(S(=O)(=O)Nc2c(C(=O)O)[nH]c3ccccc23)c(OC)c1`, the cell number change is -8.09%. Besides, the AC50 under setting [1] is 4.11 µM [falling, single point].

For the molecule `COc1ccc(C)cc1S(=O)(=O)N1c2ccc(C)cc2C2CN(C)CCC21` (centres undefined), the AC50 under setting [1] is 6.51 µM [rising, single point].

The values are drawn from PubChem BioAssay AID2685 (National Center for Advancing Translational Sciences (NCATS), 2010).
